System: Arabidopsis thaliana
Conditions: seedlings in MS medium, Cd 0-50 μM

[Cd] [Cd, cadmium]
tipping point ploidy level T: 8C

Source: patent US20240302356A1, “METHOD FOR DETERMINING A TOXICITY AND/OR GROWTH PROMOTION EFFECT OF A TREATMENT OR COMPOUND” (priority 2021, published 2024)
